Results: PubChem BioAssay AID540276 (National Center for Advancing Translational Sciences (NCATS), 2011)
Out of some 300,000 compounds screened, about 5,400 (1.8%) were called active. The shares of active, inactive and inconclusive entries below differ from those in the screen. Calls come from the whole dose curve; tested in HEK293 cells. Where the call is inconclusive, the potency comes from a doubtful curve fit.

assay: qHTS for inhibitors of binding or entry into cells for Marburg Virus; details: Marburg virus pseudotyped entry inhibition, cell reporter; series mostly up to 37.8 µM
Potency is the fitted concentration of half-maximal effect.

SMILES	Potency
CCOC(=O)c1cc2sccc2n1CC(=O)Nc1ccc(OC)cc1	inconclusive: 20.6 µM [inhibitor, partial curve, poor fit]
O=c1[nH]c(N/N=C\c2ccc(F)cc2)nc2ccccc12	inconclusive: 7.08 µM [inhibitor, partial curve, poor fit]
O=[N+]([O-])c1ccc(Oc2ccc(-c3nnco3)cc2)c(Cl)c1	inconclusive: 15.8 µM [inhibitor, single point]
CC(C)OC(=O)CCNc1n[nH]c(=O)[nH]c1=O	inconclusive: 6.31 µM [inhibitor, single point]
COc1cccc(CNc2cccc(C(F)(F)F)c2)c1O	inconclusive: 0.631 µM [inhibitor, full curve, poor fit]
Cc1cc(C)cc(NC2=CC(=O)CC(c3ccco3)C2)c1 (stereo unspecified)	inactive
COc1cc(NC(=O)c2ccc([N+](=O)[O-])o2)ccc1NC(=O)c1cccs1	inconclusive: 22.4 µM [inhibitor, single point]
Cc1sc2nc(C)n(/N=C/N(C)C)c(=O)c2c1C	inactive
CC(C)COc1ccc(C(=O)CCN2CCCCC2)cc1	inconclusive: 14.1 µM [inhibitor, partial curve, poor fit]
COc1ccc(CCNC2=NCCS2)cc1OC	inconclusive: 0.708 µM [inhibitor, full curve]
O=C(COC(=O)Cc1ccc(Br)cc1)Nc1c(F)c(F)c(F)c(F)c1F	inconclusive: 20 µM [activator, single point]
O=C(Cc1ccccc1)Nc1ccc2c(c1)OC1(CCCC1)O2	inconclusive: 7.94 µM [activator, partial curve]
CCS(=O)(=O)Nc1ccc(C2=NN(C(=S)Nc3ccccc3)C(c3ccco3)C2)cc1 (stereo unspecified)	inconclusive: 22.4 µM [inhibitor, partial curve, poor fit]
CN(C)CCCNC(=O)N1c2ccccc2Sc2ccccc21	inconclusive: 35.5 µM [inhibitor, single point]
Cc1cc(OCC(=O)N(Cc2sccc2C)C2CCS(=O)(=O)C2)ccc1Cl (stereo unspecified)	inconclusive: 11.2 µM [inhibitor, single point]
Cc1cccc(-c2ocnc2C(=O)Nc2ccccc2NC(=O)c2ccccn2)c1	inconclusive: 35.5 µM [inhibitor, single point]
COc1ccc(S(=O)(=O)NC2CC3CCC2C3)cc1 (stereo unspecified)	inactive
N#C/C(=C\c1ccccc1)C(=O)NC(=O)Oc1ccccc1	inconclusive: 0.708 µM [activator, full curve, poor fit]
O=S(=O)(NCc1cn2ccsc2n1)c1ccc(Oc2ccccc2)cc1	inconclusive: 11.2 µM [inhibitor, partial curve, poor fit]
O=C(COC(=O)c1ccccn1)c1cccc(Br)c1	inactive
COC(=O)c1sc(S(=O)(=O)N2CCN(c3ccccc3)CC2)c(C(=O)OC)c1C	inconclusive: 0.231 µM [inhibitor, full curve, poor fit]
CCCc1cc(C(=O)N/N=C/c2ccc(C)o2)c2ccccc2n1	inconclusive: 0.708 µM [inhibitor, full curve, poor fit]
Cc1cc(C)c2c(n1)nn1c(N3CCN(c4ccccc4)CC3)cc(C)nc21	inactive
O=C(NCc1cccs1)C1CCN(S(=O)(=O)N2CCCC2)CC1	inconclusive: 18.3 µM [activator, single point]

SMILES	Potency
Cc1ccc2c(CN(C)Cc3ccc(Cl)cc3Cl)cc(=O)oc2c1	inconclusive: 35.5 µM [inhibitor, single point]
O=C(CCOc1ccccc1)NCc1ccccc1	inconclusive: 0.146 µM [activator, partial curve, poor fit]
O=C(CCc1ccc(Oc2cc([N+](=O)[O-])cc([N+](=O)[O-])c2)cc1)N1CCCCC1	inactive
COc1cc2c(cc1OC)C1OC(c3ccsc3)(C2)Oc2cc(C)oc(=O)c21 (stereo unspecified)	inactive
O=C(Nc1ccncc1)C1CC1c1ccccc1 (stereo unspecified)	inconclusive: 17.8 µM [inhibitor, single point]
Cn1c(=O)[nH]c(Nc2ccccc2)c([N+](=O)[O-])c1=O	inactive
COC(=O)c1c(NC(=O)CN2CCC3(O)CCCCC3C2c2ccc(OC)cc2OC)sc(C)c1C (stereo unspecified)	inconclusive: 1.26 µM [activator, single point]
CCCCNCC(O)(c1ccc(Cl)cc1)c1ccc(Cl)cc1	inconclusive: 3.16 µM [inhibitor, full curve, poor fit]
O=S(=O)(c1ccc2ccccc2c1)N1CCN(C2CCN(Cc3ccccc3)CC2)CC1	inconclusive: 29.1 µM [inhibitor, single point]
Cc1ccc(S(=O)(=O)NC(CC(C)C)C(=O)N2CCCC2)cc1 (stereo unspecified)	inactive
CCCN(CCC)c1nc2ccccc2n2c(C)nnc12	inconclusive: 22.4 µM [inhibitor, partial curve, poor fit]
CC(=NNc1ccc([N+](=O)[O-])cn1)c1ccccc1	inactive
Cc1cc([N+](=O)[O-])nn1CCCC(=O)Nc1cc(Cl)ccc1Cl	inconclusive: 35.5 µM [inhibitor, single point]
COC(=O)c1cccc(NC(=O)c2cccnc2C(=O)O)c1C	inconclusive: 0.562 µM [activator, full curve, poor fit]
CCC(c1nnnn1C(C)(C)C)N1CCN(c2cc(Cl)ccc2C)CC1 (stereo unspecified)	active: 10 µM
COC(=O)c1ccc(COc2ccccc2/C=N/NC(N)=O)o1	inconclusive: 6.31 µM [inhibitor, single point]
CC(C)(Oc1ccc(Cl)cc1)C(=O)N(Cc1ccccc1)c1ccccn1	inconclusive: 36.6 µM [inhibitor, partial curve, poor fit]
CNc1nc(C)c(C#N)c(-c2ccccc2)c1C(C)=O	inconclusive: 22.4 µM [activator, partial curve, poor fit]
COc1cccc(C(=O)Nc2cc3c(cc2C(=O)c2ccc(C)cc2)OCCO3)c1	inconclusive: 5.62 µM [activator, single point]
FC(F)(F)c1cccc(N2CCc3cn[nH]c32)c1	inactive
CCN(CC)S(=O)(=O)c1ccc(N/N=C/c2ccc(O)cc2)nc1	inconclusive: 2.82 µM [inhibitor, full curve, poor fit]
CC(C)C(NC(=O)CCN1C(=O)c2ccccc2C1=O)c1ccccc1 (stereo unspecified)	inconclusive: 1.12 µM [inhibitor, partial curve, poor fit]
Cc1ccc(N2CN=c3s/c(=C/c4cccnc4)c(=O)n3C2)cc1	inactive
O=C(COc1ccc([N+](=O)[O-])cc1)NNC(=O)Nc1ccccc1F	inconclusive: 8.91 µM [inhibitor, partial curve]

Arranged by molar mass (smallest number first): part of the list above.
SMILES	Potency
Cn1c(=O)[nH]c(Nc2ccccc2)c([N+](=O)[O-])c1=O	inactive
COC(=O)c1ccc(COc2ccccc2/C=N/NC(N)=O)o1	inconclusive: 6.31 µM [inhibitor, single point]
COC(=O)c1c(NC(=O)CN2CCC3(O)CCCCC3C2c2ccc(OC)cc2OC)sc(C)c1C (stereo unspecified)	inconclusive: 1.26 µM [activator, single point]

(listing goes on)

SMILES	Potency
O=C(CSCc1ccccc1)N1CCN(c2ccc(F)cc2)CC1	inactive
CCCC(=O)Nc1nc2ccc(NC(=O)c3ccccc3F)cc2s1	inactive
CC(C)(C)N=C1NN=C(c2ccc(S(=O)(=O)N3CCCCC3)cc2)CS1	inconclusive: 35.5 µM [inhibitor, single point]
COc1ccc(-c2nc(CS(=O)CC(=O)NCc3ccccc3OC)c(C)o2)cc1 (stereo unspecified)	inconclusive: 6.31 µM [activator, single point]
COC(=O)COc1ccc(C2Nc3c(Cl)ccc(C(=O)O)c3C3C=CCC32)cc1 (stereo unspecified)	inactive
CCc1cc2c(SCC(=O)c3ccc(Cl)s3)ncnc2s1	inactive
CCOC(=O)C1=C(C)Nc2ccccc2S1	inactive
CCOC(=O)c1c(SCC(=O)Nc2nccs2)nc(C)c(C)c1C	inconclusive: 6.31 µM [activator, single point]
Cc1ccc(-n2ncc3c2CCCC3NC(=O)c2cnccn2)cc1C (stereo unspecified)	inconclusive: 11.2 µM [inhibitor, single point]
CNc1ccc(N=Nc2cccc3ncccc23)cc1	inactive
CCOc1ccc(NC(=O)c2nccnc2CO)cc1	inactive
CCOC(=O)c1c(C)nc2sc(C(=O)Nc3ccc(OC)cc3)c(N)c2c1-c1ccc(OC)cc1	inconclusive: 6.31 µM [inhibitor, partial curve, poor fit]
CC1CCc2sc3ncnc(N4CCOCC4)c3c2C1 (stereo unspecified)	inactive
COc1cccc(N=C2C(=O)N3CCCc4cccc2c43)c1	inconclusive: 0.398 µM [inhibitor, partial curve, poor fit]
CC(=O)c1c(C)[nH]c(C(=O)OCC(=O)C(C)(C)C)c1C	inactive
Cc1ccc(CNC(=O)c2ccc(-n3cccc3)cc2)cc1	inconclusive: 35.5 µM [inhibitor, single point]
CCn1c(=O)c2sccc2n2c(CCC(=O)Nc3cc(C)cc(C)c3)nnc12	inconclusive: 35.5 µM [inhibitor, single point]
COC(=O)c1ccc2c(c1)NC(=O)CS2	inconclusive: 2.24 µM [activator, partial curve, poor fit]
N=C(N)SCc1ccccc1Cl	active: 8.2 µM
Cc1ccc(-c2noc(CN(C(=O)C(c3ccccc3)c3ccccc3)C(C)C)n2)cc1	inconclusive: 29.1 µM [inhibitor, single point]
CCOC(=O)C1CCCN(c2nc3c(S(=O)(=O)c4ccc(C)c(C)c4)nnn3c3ccc(Cl)cc23)C1 (stereo unspecified)	inactive
O=C(N/N=C/c1cccs1)c1cc(-c2ccc3ccccc3c2)n[nH]1	inconclusive: 2.82 µM [activator, single point]
CCOc1ccc(-c2nnc(SCc3nnc(-c4ccccc4)o3)n2-c2ccccc2F)cc1	inconclusive: 35.5 µM [inhibitor, single point]
